This experiment addresses Streptag-FLAG (SF)-tagged FBXW5 (human) (UniProt Q969U6). Description: affinity purification with mass spectrometry; SF-FBXW5 transiently expressed in HEK293T, MLN4924 for 4 h, lysis buffer 50 mM Tris pH 7.4, 150 mM NaCl, 2 mM EDTA, 10% glycerol, 0.5% NP-40; Streptactin or FLAG-M2 beads; MudPIT.

Protein sequences, listed by entry. Tags and fused reporters are not part of them.
UniProt Q969U6: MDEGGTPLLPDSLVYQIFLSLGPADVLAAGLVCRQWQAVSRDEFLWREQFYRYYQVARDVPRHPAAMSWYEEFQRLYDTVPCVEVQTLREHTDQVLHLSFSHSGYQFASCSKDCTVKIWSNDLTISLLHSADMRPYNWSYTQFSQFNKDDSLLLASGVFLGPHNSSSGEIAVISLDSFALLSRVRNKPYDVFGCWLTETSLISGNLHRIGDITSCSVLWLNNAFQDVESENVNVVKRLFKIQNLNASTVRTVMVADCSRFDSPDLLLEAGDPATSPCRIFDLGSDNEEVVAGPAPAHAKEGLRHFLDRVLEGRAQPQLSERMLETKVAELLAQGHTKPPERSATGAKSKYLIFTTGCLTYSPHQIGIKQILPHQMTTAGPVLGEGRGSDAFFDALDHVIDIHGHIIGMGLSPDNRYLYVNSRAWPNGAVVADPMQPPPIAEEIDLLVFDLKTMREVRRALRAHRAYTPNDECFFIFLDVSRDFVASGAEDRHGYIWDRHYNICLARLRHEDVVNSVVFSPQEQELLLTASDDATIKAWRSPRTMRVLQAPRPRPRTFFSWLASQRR
UniProt P63208: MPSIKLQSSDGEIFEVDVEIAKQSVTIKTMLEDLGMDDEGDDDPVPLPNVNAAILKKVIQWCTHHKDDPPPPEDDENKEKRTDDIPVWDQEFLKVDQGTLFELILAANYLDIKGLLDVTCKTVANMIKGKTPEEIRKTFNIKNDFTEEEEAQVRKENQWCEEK

Results are given in words; binding and its absence hold for the method and conditions named. Binding seen in cells or lysates may run through a third protein. Here binding means that the protein was enriched with, or labelled near, the bait; the list need not be complete.

The values that follow come from article PMC6351106.

In the case of “endogenous SKP1 (from UniProt P63208 1-163)”, the binding result is “binds”.
